These are yes or no findings as the source states them, for the method shown. Binding seen in cells or lysates may run through a third protein. These calls come from enrichment with a bait or labelling near it, and not all partners need be listed. A no says only that the protein was not detected with the bait.

Amino acid sequences for entries named in this document (tags omitted).
UniProt Q02FR1: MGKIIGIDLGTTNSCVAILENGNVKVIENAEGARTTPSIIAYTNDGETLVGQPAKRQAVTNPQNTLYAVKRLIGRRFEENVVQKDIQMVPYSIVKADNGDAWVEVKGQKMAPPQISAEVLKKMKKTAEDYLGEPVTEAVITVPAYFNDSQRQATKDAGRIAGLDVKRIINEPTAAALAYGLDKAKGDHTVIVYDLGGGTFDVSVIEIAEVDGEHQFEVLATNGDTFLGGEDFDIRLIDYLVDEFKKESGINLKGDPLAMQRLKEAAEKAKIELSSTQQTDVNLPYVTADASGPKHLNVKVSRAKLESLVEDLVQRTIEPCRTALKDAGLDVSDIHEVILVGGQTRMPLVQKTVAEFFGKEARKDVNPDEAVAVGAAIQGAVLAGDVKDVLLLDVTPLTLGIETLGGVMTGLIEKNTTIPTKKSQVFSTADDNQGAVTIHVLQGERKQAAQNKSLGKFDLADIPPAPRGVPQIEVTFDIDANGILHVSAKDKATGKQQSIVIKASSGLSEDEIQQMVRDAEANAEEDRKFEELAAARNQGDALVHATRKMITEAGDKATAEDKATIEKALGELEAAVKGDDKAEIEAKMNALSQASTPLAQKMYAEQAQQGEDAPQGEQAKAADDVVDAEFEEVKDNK
UniProt Q9HV44: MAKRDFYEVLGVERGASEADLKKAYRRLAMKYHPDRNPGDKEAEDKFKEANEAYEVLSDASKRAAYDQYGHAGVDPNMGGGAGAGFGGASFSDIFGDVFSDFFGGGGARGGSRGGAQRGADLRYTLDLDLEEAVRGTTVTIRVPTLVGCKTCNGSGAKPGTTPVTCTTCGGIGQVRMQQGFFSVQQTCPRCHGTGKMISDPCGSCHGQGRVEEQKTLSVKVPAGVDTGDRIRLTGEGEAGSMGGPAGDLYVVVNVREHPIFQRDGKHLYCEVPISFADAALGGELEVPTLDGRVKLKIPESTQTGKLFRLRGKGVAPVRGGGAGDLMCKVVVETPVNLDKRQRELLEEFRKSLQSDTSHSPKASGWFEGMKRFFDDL
UniProt P30718: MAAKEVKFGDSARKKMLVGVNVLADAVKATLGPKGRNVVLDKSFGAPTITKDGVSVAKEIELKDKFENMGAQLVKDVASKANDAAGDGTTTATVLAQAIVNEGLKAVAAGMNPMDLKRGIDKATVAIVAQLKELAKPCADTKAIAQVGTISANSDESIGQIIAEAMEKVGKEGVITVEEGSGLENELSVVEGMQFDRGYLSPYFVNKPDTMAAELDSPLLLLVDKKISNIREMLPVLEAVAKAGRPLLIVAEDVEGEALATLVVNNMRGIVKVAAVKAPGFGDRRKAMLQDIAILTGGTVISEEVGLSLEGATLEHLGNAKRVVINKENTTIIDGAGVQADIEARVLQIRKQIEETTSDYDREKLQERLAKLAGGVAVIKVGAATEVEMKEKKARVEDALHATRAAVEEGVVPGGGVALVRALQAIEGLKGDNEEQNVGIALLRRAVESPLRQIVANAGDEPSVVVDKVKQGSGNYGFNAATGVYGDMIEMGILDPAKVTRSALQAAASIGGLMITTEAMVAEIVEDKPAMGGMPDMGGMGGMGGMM
UniProt Q9I3D1: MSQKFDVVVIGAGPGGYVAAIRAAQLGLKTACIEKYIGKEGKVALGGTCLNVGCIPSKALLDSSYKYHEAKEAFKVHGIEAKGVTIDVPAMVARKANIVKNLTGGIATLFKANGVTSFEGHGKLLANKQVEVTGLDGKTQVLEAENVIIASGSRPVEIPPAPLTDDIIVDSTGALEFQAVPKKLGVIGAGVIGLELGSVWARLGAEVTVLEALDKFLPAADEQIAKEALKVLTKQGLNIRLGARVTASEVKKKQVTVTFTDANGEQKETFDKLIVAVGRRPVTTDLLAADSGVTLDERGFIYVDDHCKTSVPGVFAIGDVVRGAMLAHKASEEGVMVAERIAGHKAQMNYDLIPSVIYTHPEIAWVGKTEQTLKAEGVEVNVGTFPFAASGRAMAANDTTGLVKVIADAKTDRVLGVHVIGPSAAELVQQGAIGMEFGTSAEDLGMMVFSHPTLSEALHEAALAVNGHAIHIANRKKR
UniProt Q59638: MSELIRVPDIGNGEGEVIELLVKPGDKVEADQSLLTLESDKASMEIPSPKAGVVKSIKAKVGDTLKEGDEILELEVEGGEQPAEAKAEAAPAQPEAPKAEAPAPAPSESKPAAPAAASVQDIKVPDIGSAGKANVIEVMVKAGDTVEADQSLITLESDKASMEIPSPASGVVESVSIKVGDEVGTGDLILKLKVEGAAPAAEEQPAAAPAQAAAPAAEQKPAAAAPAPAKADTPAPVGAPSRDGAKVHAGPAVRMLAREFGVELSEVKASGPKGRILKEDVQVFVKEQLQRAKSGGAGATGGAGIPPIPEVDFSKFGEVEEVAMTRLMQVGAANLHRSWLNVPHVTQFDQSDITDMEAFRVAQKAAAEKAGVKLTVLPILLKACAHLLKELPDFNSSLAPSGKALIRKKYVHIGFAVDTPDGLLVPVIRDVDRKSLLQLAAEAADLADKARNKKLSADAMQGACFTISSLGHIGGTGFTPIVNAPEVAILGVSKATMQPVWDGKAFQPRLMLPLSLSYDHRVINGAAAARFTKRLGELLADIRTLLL

The assay addresses DnaK (Hsp70) chaperone of Pseudomonas aeruginosa PA14 (P. aeruginosa PA14 (endogenous in P. aeruginosa PA14)) (UniProt Q02FR1). In words: affinity purification with mass spectrometry; anti-DnaK polyclonal IgG on Dynabeads Protein A; whole cell lysate of P. aeruginosa PA14 grown aerobically (1.4 mg/mL protein), cells treated with formaldehyde by the results; washed with PBS/0.02% Tween20; eluted with 100 mM citrate pH 2.5; LC-MS/MS, at least two unique peptides.
With “co-chaperone DnaJ (from UniProt Q9HV44 1-377)”, the binding entry was “no binding”. To “Chaperonin GroEL (from UniProt P30718 1-547)” belongs “binds”; to “Dihydrolipoamide dehydrogenase Lpd (from UniProt Q9I3D1 1-478) (enzyme)”, “binds”; to “Dihydrolipoamide acetyltransferase AceF (from UniProt Q59638 1-547) (enzyme)”, “binds”.

(Values after paper PMC11816700.)
